Results reported in publication PMC8799878 (Acta Pharmaceutica Sinica. B, 2021).

Test system: Mia PaCa-2 cells
Experiment: In vitro antiproliferative assay
Assay type: cell-based
Conditions: Homo sapiens, MIA PaCa-2, 72 h, read-out: Mia PaCa-2 (IC50), CCK8 method, 72 h

`O=C(CCCN1CCC2(CC1)C(=O)NCN2c1ccccc1)c1ccc(F)cc1` [Compound 9, Spiperone, reference compound] showed an IC50 greater than 100 µM.
